No constants are given. Whether binding was seen depends on the method and setting. In cells and extracts the contact can be indirect. Some results given as binding are weak or reduced against the parent protein; the word gives no strength.
How the values were obtained:
[1] = molecular target: orphan nuclear receptor Nur77 (mouse (endogenous in BV-2)) (UniProt P12813); experiment: co-IP; nuclear extracts (120 μg protein) of BV-2 cells, with or without 6-MP (50 μM, 16 h) pretreatment, then LPS (100 ng/ml, 60 min); IP with rabbit anti-Nur77 or rabbit anti-p65 overnight at 4 °C, protein G magnetic beads; washed in 20 mM Tris pH 7.5, 150 mM NaCl, 1 % Triton X-100; blots with anti-Nur77 and anti-p65
[2] = molecular target: NF-κB p65 (mouse (endogenous in BV-2)) (UniProt Q04207); experiment: as above

The chains behind the UniProt entries cited, without tags or fusion partners.
UniProt P12813: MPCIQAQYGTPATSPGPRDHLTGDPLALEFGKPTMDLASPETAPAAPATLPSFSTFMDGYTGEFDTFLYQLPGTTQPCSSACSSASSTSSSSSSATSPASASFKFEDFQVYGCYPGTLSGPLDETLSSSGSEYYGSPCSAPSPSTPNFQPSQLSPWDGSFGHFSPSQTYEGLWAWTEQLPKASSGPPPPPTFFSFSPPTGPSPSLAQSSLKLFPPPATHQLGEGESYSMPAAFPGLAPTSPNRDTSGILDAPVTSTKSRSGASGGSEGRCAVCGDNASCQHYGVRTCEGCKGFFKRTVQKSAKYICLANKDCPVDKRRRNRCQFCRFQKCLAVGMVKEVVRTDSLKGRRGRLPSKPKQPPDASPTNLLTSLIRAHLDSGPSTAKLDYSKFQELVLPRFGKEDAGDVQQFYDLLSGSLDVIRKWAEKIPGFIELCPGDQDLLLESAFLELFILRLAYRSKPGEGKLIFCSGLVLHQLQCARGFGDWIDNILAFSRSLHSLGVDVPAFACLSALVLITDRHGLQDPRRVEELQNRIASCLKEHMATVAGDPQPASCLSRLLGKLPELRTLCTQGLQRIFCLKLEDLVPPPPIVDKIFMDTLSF
UniProt Q04207: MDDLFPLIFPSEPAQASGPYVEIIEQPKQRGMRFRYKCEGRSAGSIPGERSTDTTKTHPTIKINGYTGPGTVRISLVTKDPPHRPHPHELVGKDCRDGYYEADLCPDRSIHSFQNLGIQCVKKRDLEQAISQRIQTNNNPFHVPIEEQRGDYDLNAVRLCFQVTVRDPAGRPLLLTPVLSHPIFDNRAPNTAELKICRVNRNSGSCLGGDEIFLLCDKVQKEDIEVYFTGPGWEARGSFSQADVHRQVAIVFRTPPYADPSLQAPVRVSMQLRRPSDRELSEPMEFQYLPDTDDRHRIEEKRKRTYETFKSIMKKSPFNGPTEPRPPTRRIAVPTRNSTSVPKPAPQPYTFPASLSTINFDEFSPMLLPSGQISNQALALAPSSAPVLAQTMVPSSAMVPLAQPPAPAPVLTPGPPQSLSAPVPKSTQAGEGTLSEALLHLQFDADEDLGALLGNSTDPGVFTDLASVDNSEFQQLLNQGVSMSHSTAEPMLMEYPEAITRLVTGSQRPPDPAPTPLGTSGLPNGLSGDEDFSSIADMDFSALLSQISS

binding [1] | binding [2] | Substance
binds |  | NF-κB p65 (from UniProt Q04207 1-549)
 | binds | orphan nuclear receptor Nur77 (from UniProt P12813 1-601)

Source: paper PMC4831152
